# Source: the supplement of paper PMC8728848
# The other results are listed elsewhere or left out.
# Legend:
# Experiment in all cases: glycan array binding signal (z-score within array); higher = stronger binding
# Details in all cases: glycan notation: IUPAC condensed, linker removed; mutation: D21K
# Fuc(a1-2)Gal = molecular target: Fuc(a1-2)Gal
# Method in brief: (§1)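 The binding signal is a Z-score computed within each array. Data were drawn from 3228 arrays in the Consortium for Functional Glycomics database, restricted to those with a known protein sequence. Scores were averaged over arrays of the same protein sequence at different concentrations or buffers, and over linkers, and negative values can be taken as non-binding.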
# Fuc(a1-2)Gal(b1-3)GalNAc = molecular target: Fuc(a1-2)Gal(b1-3)GalNAc
# Method in brief: as §1
# [1] = molecular target: Fuc(a1-2)Gal(b1-3)GalNAc(a1-3)[Fuc(a1-2)]Gal(b1-4)Glc
# Method in brief: as §1
# [2] = molecular target: Fuc(a1-2)Gal(b1-3)GalNAc(a1-3)[Fuc(a1-2)]Gal(b1-4)GlcNAc
# Method in brief: as §1
# [3] = molecular target: Fuc(a1-2)Gal(b1-3)GalNAc(b1-3)Gal
# Method in brief: as §1
# [4] = molecular target: Fuc(a1-2)Gal(b1-3)GalNAc(b1-3)Gal(a1-4)Gal(b1-4)Glc
# Method in brief: as §1
# [5] = molecular target: Fuc(a1-2)Gal(b1-3)GalNAc(b1-4)[Neu5Ac(a2-3)]Gal(b1-4)Glc
# Method in brief: as §1
# Fuc(a1-2)Gal(b1-3)GlcNAc = molecular target: Fuc(a1-2)Gal(b1-3)GlcNAc
# Method in brief: as §1
# [6] = molecular target: Fuc(a1-2)Gal(b1-3)GlcNAc(b1-2)Man(a1-3)[Fuc(a1-2)Gal(b1-3)GlcNAc(b1-2)Man(a1-6)]Man(b1-4)GlcNAc(b1-4)GlcNAc
# Method in brief: as §1
# [7] = molecular target: Fuc(a1-2)Gal(b1-3)GlcNAc(b1-2)Man(a1-3)[Fuc(a1-2)Gal(b1-3)GlcNAc(b1-2)Man(a1-6)]Man(b1-4)GlcNAc(b1-4)[Fuc(a1-6)]GlcNAc
# Method in brief: as §1
# [8] = molecular target: Fuc(a1-2)Gal(b1-3)GlcNAc(b1-3)Gal(b1-4)Glc
# Method in brief: as §1
# [9] = molecular target: Fuc(a1-2)Gal(b1-3)GlcNAc(b1-3)GalNAc
# Method in brief: as §1
# [10] = molecular target: Fuc(a1-2)Gal(b1-3)GlcNAc(b1-3)[Fuc(a1-2)Gal(b1-3)GlcNAc(b1-6)]GalNAc
# Method in brief: as §1
# [11] = molecular target: Fuc(a1-2)Gal(b1-3)GlcNAc(b1-3)[Gal(b1-4)GlcNAc(b1-6)]Gal(b1-4)Glc
# Method in brief: as §1
# [12] = molecular target: Fuc(a1-2)Gal(b1-3)GlcNAc(b1-3)[Neu5Ac(a2-6)Gal(b1-4)GlcNAc(b1-6)]Gal(b1-4)Glc
# Method in brief: as §1
# [13] = molecular target: Fuc(a1-2)Gal(b1-3)GlcNAc6S
# Method in brief: as §1
# [14] = molecular target: Fuc(a1-2)Gal(b1-3)[Fuc(a1-4)]GlcNAc
# Method in brief: as §1
# [15] = molecular target: Fuc(a1-2)Gal(b1-3)[Fuc(a1-4)]GlcNAc(b1-2)Man(a1-3)[Fuc(a1-2)Gal(b1-3)[Fuc(a1-4)]GlcNAc(b1-2)Man(a1-3)]Man(b1-4)GlcNAc(b1-4)GlcNAc
# Method in brief: as §1
# [16] = molecular target: Fuc(a1-2)Gal(b1-3)[Fuc(a1-4)]GlcNAc(b1-2)Man(a1-3)[Fuc(a1-2)Gal(b1-3)[Fuc(a1-4)]GlcNAc(b1-2)Man(a1-6)]Man(b1-4)GlcNAc(b1-4)[Fuc(a1-6)]GlcNAc(b1-4)[Fuc(a1-6)]GlcNAc
# Method in brief: as §1
# [17] = molecular target: Fuc(a1-2)Gal(b1-3)[Fuc(a1-4)]GlcNAc(b1-3)[Fuc(a1-3)[Gal(b1-4)]GlcNAc(b1-6)]Gal(b1-4)Glc
# Method in brief: as §1
# [18] = molecular target: Fuc(a1-2)Gal(b1-3)[Fuc(a1-4)]GlcNAc(b1-3)[Gal(b1-4)GlcNAc(b1-6)]Gal(b1-4)Glc
# Method in brief: as §1
# [19] = molecular target: Fuc(a1-2)Gal(b1-4)Fuc(a1-3)]GlcNAc(b1-2)Man(a1-3)[Fuc(a1-2)Gal(b1-4)[Fuc(a1-3)]GlcNAc(b1-2)Man(a1-6)]Man(b1-4)GlcNAc(b1-4)GlcNAc
# Method in brief: as §1
# Fuc(a1-2)Gal(b1-4)Glc = molecular target: Fuc(a1-2)Gal(b1-4)Glc
# Method in brief: as §1
# Fuc(a1-2)Gal(b1-4)Glc6S = molecular target: Fuc(a1-2)Gal(b1-4)Glc6S
# Method in brief: as §1
# Fuc(a1-2)Gal(b1-4)GlcNAc = molecular target: Fuc(a1-2)Gal(b1-4)GlcNAc
# Method in brief: as §1
# [20] = molecular target: Fuc(a1-2)Gal(b1-4)GlcNAc(b1-2)Man
# Method in brief: as §1
# [21] = molecular target: Fuc(a1-2)Gal(b1-4)GlcNAc(b1-2)Man(a1-3)[Fuc(a1-2)Gal(b1-4)GlcNAc(b1-2)Man(a1-6)]Man(b1-4)GlcNAc(b1-4)GlcNAc
# Method in brief: as §1
# [22] = molecular target: Fuc(a1-2)Gal(b1-4)GlcNAc(b1-2)Man(a1-3)[Fuc(a1-2)Gal(b1-4)GlcNAc(b1-2)Man(a1-6)]Man(b1-4)GlcNAc(b1-4)[Fuc(a1-6)]GlcNAc
# Method in brief: as §1
# [23] = molecular target: Fuc(a1-2)Gal(b1-4)GlcNAc(b1-2)[Fuc(a1-2)Gal(b1-4)GlcNAc(b1-4)]Man(a1-3)[Fuc(a1-2)Gal(b1-4)GlcNAc(b1-2)Man(a1-6)]Man(b1-4)GlcNAc(b1-4)GlcNAc
# Method in brief: as §1
# [24] = molecular target: Fuc(a1-2)Gal(b1-4)GlcNAc(b1-3)Gal(b1-4)GlcNAc
# Method in brief: as §1
binder,measurement,setting,value
KILRGVCKKIMRTFLRRISKKILTGKK [C7A (Sus scrofa)],glycan array binding signal (z-score),Fuc(a1-2)Gal,-0.691
same,glycan array binding signal (z-score),Fuc(a1-2)Gal(b1-3)GalNAc,-0.125
same,glycan array binding signal (z-score),[1],-0.986
same,glycan array binding signal (z-score),[2],-0.784
same,glycan array binding signal (z-score),[3],-0.779
same,glycan array binding signal (z-score),[4],1.33
same,glycan array binding signal (z-score),[5],0.257
same,glycan array binding signal (z-score),Fuc(a1-2)Gal(b1-3)GlcNAc,-0.76
same,glycan array binding signal (z-score),[6],0.451
same,glycan array binding signal (z-score),[7],0.03
same,glycan array binding signal (z-score),[8],0.012
same,glycan array binding signal (z-score),[9],-0.56
same,glycan array binding signal (z-score),[10],-1.07
same,glycan array binding signal (z-score),[11],0.374
same,glycan array binding signal (z-score),[12],-0.789
same,glycan array binding signal (z-score),[13],0.325
same,glycan array binding signal (z-score),[14],-0.297
same,glycan array binding signal (z-score),[15],0.792
same,glycan array binding signal (z-score),[16],-0.293
same,glycan array binding signal (z-score),[17],-0.938
same,glycan array binding signal (z-score),[18],-0.628
same,glycan array binding signal (z-score),[19],-0.438
same,glycan array binding signal (z-score),Fuc(a1-2)Gal(b1-4)Glc,0.013
same,glycan array binding signal (z-score),Fuc(a1-2)Gal(b1-4)Glc6S,0.173
same,glycan array binding signal (z-score),Fuc(a1-2)Gal(b1-4)GlcNAc,-0.119
same,glycan array binding signal (z-score),[20],0.667
same,glycan array binding signal (z-score),[21],-0.685
same,glycan array binding signal (z-score),[22],-0.904
same,glycan array binding signal (z-score),[23],-0.282
same,glycan array binding signal (z-score),[24],-0.661

# Another view of part of the listing above.
binder | measurement | setting | value
KILRGVCKKIMRTFLRRISKKILTGKK [C7A (Sus scrofa)] | glycan array binding signal (z-score) | [1] | -0.986
same | glycan array binding signal (z-score) | [15] | 0.792
